Measurements reported in PubChem BioAssay AID652243 (Drosophila RNAi Screening Center, 2013)
Test: 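Fly genes required for human androgen receptor driven transcription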 (primary screen). Cell system: Drosophila S2R+ cells. Knock-down reagent: long dsRNA against Drosophila genes. Duration: 72 h (48 h, then 24 h hormone). Treatment: synthetic androgen R1881 at 10 nM for 24 h. Measured: 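Firefly light from an androgen-responsive reporter and Renilla control light per well, raw and unnormalised, for each of two replicates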. Reading the numbers: firefly reporter light: higher = more light from androgen-responsive reporter; Renilla control light: higher = more constitutive control signal (cell number, transfection). Hit rule: 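Across duplicate plates, a knock-down whose log firefly/Renilla ratio shifted a set fold down or up from the GFP/LacZ control mean was a hit; the downward cut appears as both 1.5 and 3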. Calls: active = hit: reporter lowered or raised; inactive = no hit.
The screen tested about 24,000 reagents; shown is a random part of those with a known target gene and a result. Over the whole deposit, 246 (1%) got an active call. 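Plates not normalised; calls are printed but the firefly/Renilla ratio behind them is not deposited; fold cut for lowering reported inconsistently.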 The raw values are shown without normalisation. The record does not give: the amount of reagent.

CG3281 [DRSC15470]
- firefly reporter light, replicate 1: 81418
- firefly reporter light, replicate 2: 88717
- Renilla control light, replicate 1: 5.69e5
- Renilla control light, replicate 2: 8.44e5
- Call: inactive

CG3281 [DRSC28414]
- firefly reporter light, replicate 1: 3.14e5
- firefly reporter light, replicate 2: 3.69e5
- Renilla control light, replicate 1: 5.36e5
- Renilla control light, replicate 2: 9.38e5
- Call: inactive

Got1 (Glutamate oxaloacetate transaminase 1) [DRSC07177]
- firefly reporter light, replicate 1: 4.82e5
- firefly reporter light, replicate 2: 6.30e5
- Renilla control light, replicate 1: 5.16e5
- Renilla control light, replicate 2: 4.52e5
- Call: inactive

Got1 (Glutamate oxaloacetate transaminase 1) [DRSC26159]
- firefly reporter light, replicate 1: 2.27e5
- firefly reporter light, replicate 2: 3.50e5
- Renilla control light, replicate 1: 5.35e5
- Renilla control light, replicate 2: 6.20e5
- Call: inactive

mAChR-A (muscarinic Acetylcholine Receptor, A-type) [DRSC04702]
- firefly reporter light, replicate 1: 4.96e5
- firefly reporter light, replicate 2: 3.87e5
- Renilla control light, replicate 1: 1.60e6
- Renilla control light, replicate 2: 1.24e6
- Call: inactive

mAChR-A (muscarinic Acetylcholine Receptor, A-type) [DRSC28262]
- firefly reporter light, replicate 1: 4.31e5
- firefly reporter light, replicate 2: 7.09e5
- Renilla control light, replicate 1: 9.63e5
- Renilla control light, replicate 2: 1.71e6
- Call: inactive

Only “firefly reporter light, replicate 2” (2 entries from above):
Got1 (Glutamate oxaloacetate transaminase 1) [DRSC07177]	6.30e5
Got1 (Glutamate oxaloacetate transaminase 1) [DRSC26159]	3.50e5

Further results follow.
Glt (Glutactin) [DRSC03333]
- firefly reporter light, replicate 1: 6.51e5
- firefly reporter light, replicate 2: 7.96e5
- Renilla control light, replicate 1: 1.23e6
- Renilla control light, replicate 2: 1.22e6
- Call: inactive

Glt (Glutactin) [DRSC28681]
- firefly reporter light, replicate 1: 4.85e5
- firefly reporter light, replicate 2: 4.36e5
- Renilla control light, replicate 1: 1.66e6
- Renilla control light, replicate 2: 1.37e6
- Call: inactive

CG1545 [DRSC21532]
- firefly reporter light, replicate 1: 7.40e5
- firefly reporter light, replicate 2: 5.23e5
- Renilla control light, replicate 1: 2.26e6
- Renilla control light, replicate 2: 2.79e6
- Call: inactive

fra (frazzled) [DRSC07621]
- firefly reporter light, replicate 1: 2.44e5
- firefly reporter light, replicate 2: 2.74e5
- Renilla control light, replicate 1: 1.44e6
- Renilla control light, replicate 2: 1.13e6
- Call: inactive

CG18493 [DRSC15334]
- firefly reporter light, replicate 1: 2.58e5
- firefly reporter light, replicate 2: 3.39e5
- Renilla control light, replicate 1: 2.96e6
- Renilla control light, replicate 2: 3.82e6
- Call: inactive

CG13040 [DRSC09921]
- firefly reporter light, replicate 1: 2.63e5
- firefly reporter light, replicate 2: 2.21e5
- Renilla control light, replicate 1: 2.20e6
- Renilla control light, replicate 2: 1.64e6
- Call: inactive

CG13040 [DRSC28429]
- firefly reporter light, replicate 1: 2.35e5
- firefly reporter light, replicate 2: 5.01e5
- Renilla control light, replicate 1: 6.78e5
- Renilla control light, replicate 2: 1.35e6
- Call: inactive

por (porcupine) [DRSC20362]
- firefly reporter light, replicate 1: 7.51e5
- firefly reporter light, replicate 2: 7.01e5
- Renilla control light, replicate 1: 2.71e6
- Renilla control light, replicate 2: 2.57e6
- Call: inactive

por (porcupine) [DRSC29877]
- firefly reporter light, replicate 1: 4.95e5
- firefly reporter light, replicate 2: 4.21e5
- Renilla control light, replicate 1: 8.29e5
- Renilla control light, replicate 2: 9.43e5
- Call: inactive
